# Data as given in PubChem BioAssay AID1259424 (University of Nebraska Medical Center, 2018).
# Assay: 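Find knockdowns that reproduce the expression shifts seen after KSR1 loss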 (primary screen)
# Cells: human HCT116 colon cancer cells
# Reagents: siRNA pool against human genes, 50 nM
# Measurement: 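Log2 levels of six mRNAs (branched-DNA multiplex), adjusted by two reference genes and the non-targeting median, then scored against the average KSR1 knockdown pattern as Pearson r and euclidean distance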
# Direction: mean correlation with KSR1 profile and KSR1 correlation: higher = expression change more like KSR1 knockdown; mean distance from KSR1 profile: higher = expression change less like KSR1 knockdown
# The whole screen tested about 14,000 reagents; shown is a random part of them. 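Higher correlation or smaller distance means closer resemblance to KSR1 loss; control wells, including KSR1 knockdowns, recur on many plates.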 Not given: the time to read-out.
Target gene,mean correlation with KSR1 profile,mean distance from KSR1 profile,"KSR1 correlation, replicate 1","KSR1 correlation, replicate 2","KSR1 correlation, replicate 3"
NPY1R (neuropeptide Y receptor Y1),-0.2,4.2,0.186,0.133,-0.309
PARP10 (poly(ADP-ribose) polymerase family member 10),0.419,1.84,0.0278,0.609,0.403
GAP43 (growth associated protein 43),0.199,2.27,0.41,0.168,-0.357
NLRP10 (NLR family pyrin domain containing 10),0.511,1.43,0.532,0.45,0.039
HSD17B3 (hydroxysteroid 17-beta dehydrogenase 3),0.0432,1.79,0.201,-0.201,0.0383
CLSPN (claspin),-0.0512,1.89,0.000341,0.0655,0.193
CDH8 (cadherin 8),0.191,1.46,0.351,-0.045,0.548
PCDHA2 (protocadherin alpha 2),0.323,1.93,0.161,0.29,0.281
MMP27 (matrix metallopeptidase 27),0.414,1.73,0.423,0.358,0.387
SAP30L (SAP30 like),-0.559,5.02,-0.626,-0.69,-0.569
PTPRD (protein tyrosine phosphatase receptor type D),0.239,1.76,0.127,0.0982,0.35
C22orf31 (chromosome 22 open reading frame 31),0.265,2.71,0.429,0.159,0.0778
MAP2K7 (mitogen-activated protein kinase kinase 7),0.91,0.865,0.783,0.929,0.77
"NRDE2 (NRDE-2, necessary for RNA interference, domain containing)",-0.173,3.05,-0.445,-0.118,-0.251
SCMH1 (Scm polycomb group protein homolog 1),0.284,1.53,0.193,0.335,0.368
BPIFA1 (BPI fold containing family A member 1),-0.687,2.34,-0.616,-0.699,-0.642
ACKR4 (atypical chemokine receptor 4),0.93,0.601,0.897,0.933,0.825
"PLOD2 (procollagen-lysine,2-oxoglutarate 5-dioxygenase 2)",0.572,0.667,0.634,0.723,0.368
CPM (carboxypeptidase M),-0.59,4.34,-0.543,-0.582,-0.703
CDCA3 (cell division cycle associated 3),0.63,3.18,0.527,0.688,0.604
KRTAP3-2 (keratin associated protein 3-2),0.515,3.11,0.525,0.493,0.222
MSRA (methionine sulfoxide reductase A),-0.129,2.18,-0.355,-0.00345,-0.163
LIN28A (lin-28 RNA binding posttranscriptional regulator A),0.362,2.12,0.445,0.672,0.0592
MCM5 (minichromosome maintenance complex component 5),0.209,2.66,0.254,0.203,-0.0359
PRND (prion like protein doppel),-0.0489,5.05,-0.159,-0.14,-0.0104
NPFFR1 (neuropeptide FF receptor 1),0.26,2.73,0.223,0.404,0.332
RHBDF2 (rhomboid 5 homolog 2),0.626,1.26,0.645,0.529,0.493
USP19 (ubiquitin specific peptidase 19),-0.318,1.74,-0.122,-0.428,-0.563
PCYOX1L (prenylcysteine oxidase 1 like),0.0113,1.85,-0.226,-0.119,-0.0461
CHSY1 (chondroitin sulfate synthase 1),-0.474,2.2,-0.239,-0.456,-0.651
FASTKD5 (FASTK mitochondrial RNA regulator 5),0.53,1.93,0.501,0.545,0.566
"ST3GAL6 (ST3 beta-galactoside alpha-2,3-sialyltransferase 6)",-0.249,2.08,-0.0524,-0.401,-0.196
PON1 (paraoxonase 1),0.379,1.12,-0.0816,0.763,0.513
ZNF462 (zinc finger protein 462),0.547,3.78,0.34,0.701,0.729
SPRING1 (SREBF pathway regulator in golgi 1),0.893,1.19,0.902,0.948,0.84
"ST6GALNAC2 (ST6 N-acetylgalactosaminide alpha-2,6-sialyltransferase 2)",-0.387,2.95,-0.264,-0.574,-0.282
RIPK1 (receptor interacting serine/threonine kinase 1),-0.242,2.25,-0.0023,-0.509,-0.456
NID1 (nidogen 1),0.27,1.5,0.365,0.141,0.104
GPATCH2 (G-patch domain containing 2),0.548,3.32,0.251,0.392,0.663
EEF2K (eukaryotic elongation factor 2 kinase),0.185,2.1,0.509,0.257,-0.417
UVSSA (UV stimulated scaffold protein A),-0.919,2.71,-0.941,-0.69,-0.841
VPS53 (VPS53 subunit of GARP complex),-0.236,2.78,0.145,-0.787,-0.164
NAALADL1 (N-acetylated alpha-linked acidic dipeptidase like 1),0.491,2.71,0.714,0.396,0.361
IL17C (interleukin 17C),0.0536,2.26,0.177,0.0203,-0.115
MYO1C (myosin IC),0.2,1.36,0.457,0.356,-0.0681
CABYR (calcium binding tyrosine phosphorylation regulated),0.578,0.821,0.675,0.36,0.691
EDN1 (endothelin 1),0.269,2.03,0.362,0.0982,0.232
OVCA2 (OVCA2 serine hydrolase domain containing),-0.249,2.64,-0.257,-0.431,-0.232
SLC23A2,-0.41,2.16,-0.413,-0.568,-0.235
GPATCH3 (G-patch domain containing 3),-0.397,6.81,-0.185,-0.2,-0.204
KRT12 (keratin 12),0.297,1.51,0.239,0.0069,0.387
NDRG3 (NDRG family member 3),-0.19,2.08,-0.308,-0.0907,-0.164
MRPL46 (mitochondrial ribosomal protein L46),0.203,1.79,0.29,-0.317,0.336
MAPK14 (mitogen-activated protein kinase 14),0.221,1.52,0.337,0.362,0.0981
MT-ATP6 (mitochondrially encoded ATP synthase 6),0.223,3.01,0.0946,0.0638,0.259
RPS10 (ribosomal protein S10),-0.305,2.51,-0.258,-0.33,-0.368
NF1 (neurofibromin 1),-0.0223,1.55,-0.055,0.0674,-0.0491
"HSFX1 (heat shock transcription factor family, X-linked 1)",-0.472,2.85,-0.583,-0.277,-0.394
PGAP6 (post-GPI attachment to proteins 6),-0.0256,2.58,-0.114,0.0901,0.085
FADS2 (fatty acid desaturase 2),0.42,1.62,0.402,0.542,0.579
BCCIP (BRCA2 and CDKN1A interacting protein),0.494,2.72,0.355,0.373,0.554
LRCH3,0.733,1.44,0.525,0.58,0.801
SLC9A5,-0.718,1.83,-0.741,-0.691,-0.525
